{"sequences": {"note": "Protein sequences, listed by entry. Tags and fused reporters are not part of them. Lines headed by an entry give the natural chain unless they say otherwise; changes in a name come on top. Chains listed by the source or under a name are the forms on record and can include a tag or linker.", "FLAG-SET/TAF-Iβ (Q01105, form named)": "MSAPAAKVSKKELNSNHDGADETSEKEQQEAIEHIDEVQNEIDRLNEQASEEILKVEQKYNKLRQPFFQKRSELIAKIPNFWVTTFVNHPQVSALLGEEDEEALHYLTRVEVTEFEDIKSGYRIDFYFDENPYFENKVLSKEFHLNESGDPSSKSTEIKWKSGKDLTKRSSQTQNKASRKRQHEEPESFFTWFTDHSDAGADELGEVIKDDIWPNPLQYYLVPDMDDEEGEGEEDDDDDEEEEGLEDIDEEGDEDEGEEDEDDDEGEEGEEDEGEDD", "UniProt P19474": "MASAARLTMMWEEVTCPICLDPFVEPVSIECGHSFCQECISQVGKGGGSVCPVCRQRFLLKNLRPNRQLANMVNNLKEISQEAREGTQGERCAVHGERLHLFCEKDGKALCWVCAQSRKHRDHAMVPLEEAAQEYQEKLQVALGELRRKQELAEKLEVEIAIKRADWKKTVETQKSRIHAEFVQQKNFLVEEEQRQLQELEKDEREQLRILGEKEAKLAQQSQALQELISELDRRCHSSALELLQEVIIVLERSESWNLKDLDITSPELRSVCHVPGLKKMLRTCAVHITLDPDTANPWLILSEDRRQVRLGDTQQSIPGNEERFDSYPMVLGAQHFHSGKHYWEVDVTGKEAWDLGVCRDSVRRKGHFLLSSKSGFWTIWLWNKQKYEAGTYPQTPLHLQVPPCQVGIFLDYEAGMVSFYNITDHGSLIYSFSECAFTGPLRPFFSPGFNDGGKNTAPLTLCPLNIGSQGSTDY"}, "source": "paper PMC10516711", "target": "FLAG-SET/TAF-Iβ (UniProt Q01105)", "experiment": "affinity purification with mass spectrometry; FLAG-SET/TAF-Iβ overexpressed in HCT116 cells, immunoprecipitated with anti-FLAG antibody, SDS-PAGE, in-gel trypsin digestion, LC-MS/MS", "note": "No constants are given. Whether binding was seen depends on the method and setting. In cells and extracts the contact can be indirect. These calls come from enrichment with a bait or labelling near it, and not all partners need be listed.", "data": [{"substance": "TRIM21, endogenous (from UniProt P19474 1-475)", "values": [{"measurement": "binding", "value": "binds"}]}]}
